The target of the test is EYFP-fused GRP94 (GRP94 in pEYFP-N1) (UniProt P14625). The test can be described thus: FRET or BRET; live-cell confocal FRET of ECFP (donor) and EYFP (acceptor) fusions in HEK293 cells transfected 48 h; acceptor/donor plasmid ratios 1:1 to 5:1; FRET efficiency against A/D ratio fitted to a 1:1 binding model. In general terms: Bioluminescence resonance energy transfer reports proximity on the nanometre scale.

The chains behind the UniProt entries cited, without tags or fusion partners. Residues count along the entry.
UniProt P14625, residues 22-803: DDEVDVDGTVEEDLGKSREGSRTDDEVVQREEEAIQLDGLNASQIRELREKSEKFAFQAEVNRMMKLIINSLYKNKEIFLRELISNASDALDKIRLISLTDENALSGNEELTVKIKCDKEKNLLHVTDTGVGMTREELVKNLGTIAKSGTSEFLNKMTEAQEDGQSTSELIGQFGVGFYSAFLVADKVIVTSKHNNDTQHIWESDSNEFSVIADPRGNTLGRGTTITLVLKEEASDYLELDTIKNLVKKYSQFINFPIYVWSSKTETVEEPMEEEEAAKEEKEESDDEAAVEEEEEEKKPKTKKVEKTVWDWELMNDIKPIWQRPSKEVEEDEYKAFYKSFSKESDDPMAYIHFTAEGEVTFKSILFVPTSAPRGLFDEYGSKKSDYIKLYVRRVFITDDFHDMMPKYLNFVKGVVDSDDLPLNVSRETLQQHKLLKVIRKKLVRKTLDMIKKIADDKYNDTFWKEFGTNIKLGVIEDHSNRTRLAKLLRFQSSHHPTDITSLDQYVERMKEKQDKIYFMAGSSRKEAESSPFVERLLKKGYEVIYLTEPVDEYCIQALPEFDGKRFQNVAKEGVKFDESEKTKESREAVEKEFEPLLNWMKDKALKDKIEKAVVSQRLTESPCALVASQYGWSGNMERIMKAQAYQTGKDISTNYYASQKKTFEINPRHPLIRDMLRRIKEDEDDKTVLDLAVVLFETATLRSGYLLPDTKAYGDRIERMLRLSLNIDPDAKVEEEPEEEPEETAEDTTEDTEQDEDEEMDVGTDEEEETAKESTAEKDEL
UniProt Q9GZT9: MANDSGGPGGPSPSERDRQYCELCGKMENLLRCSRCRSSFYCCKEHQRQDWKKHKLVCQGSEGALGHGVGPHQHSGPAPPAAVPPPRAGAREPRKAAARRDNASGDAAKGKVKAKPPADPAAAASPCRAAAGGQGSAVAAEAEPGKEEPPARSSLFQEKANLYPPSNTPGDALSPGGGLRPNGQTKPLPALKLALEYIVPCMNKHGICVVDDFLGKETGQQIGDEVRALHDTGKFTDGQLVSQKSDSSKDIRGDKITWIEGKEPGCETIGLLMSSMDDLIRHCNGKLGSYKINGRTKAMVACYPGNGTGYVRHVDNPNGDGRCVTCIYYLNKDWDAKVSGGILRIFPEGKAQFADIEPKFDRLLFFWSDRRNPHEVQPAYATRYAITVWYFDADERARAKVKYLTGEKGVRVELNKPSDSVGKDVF

These are yes or no findings as the source states them, for the method shown. Binding seen in cells or lysates may run through a third protein.

On to “PHD2-ECFP (PHD2 coding sequence in pECFP-N1) (from UniProt Q9GZT9 1-426) (enzyme)”, for which the binding entry is reported as “no binding”.
